Reference: PubChem BioAssay AID504834 (National Center for Advancing Translational Sciences (NCATS), 2011)
In all, about 320,000 compounds went through this assay and about 22,000 (6.9%) were called active. The shares of active, inactive and inconclusive entries below differ from those in the screen. The call rests on the fitted dose curve; in most records, active means well fitted inhibition curve with a large enough effect; inconclusive means small, poorly fitted or top-dose-only effect, or another doubt; inactive means no such curve, though single readings can be large or run the other way. A potency beside an inconclusive call is a rough fit, not a confirmed value.

Assay: Primary qHTS for delayed death inhibitors of the malarial parasite plastid, 96 hour incubation
Details: P. falciparum luciferase reporter growth; series mostly up to 28.7 µM; activity change, negative = inhibition: at the top concentration
Method in brief: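 Erythrocytes infected with luciferase-expressing P. falciparum were dispensed at 2% hematocrit and 0.05% parasitemia (final), then incubated with compounds 96 hours at 37 C in 5% CO2. Luminescence after detection reagent addition reported growth.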
On the % scale 0 is the no-effect control and ±100 the full control effect; potency means the concentration at half of the fitted maximal effect.

Row | Compound | activity change, negative = inhibition | Potency
1 | O=C(CNS(=O)(=O)c1ccccc1)NCC(=O)OCc1ccc(Cl)cc1 | inactive: 3.66% | 
2 | O=C(NCCCN1CCc2ccccc2C1)C1CCN(S(=O)(=O)N2CCC3(CC2)OCCO3)CC1 |  | inconclusive: 10.4 µM [inhibitor, single point]
3 | COc1cc(CNCCN2CCOCC2)ccc1OCc1ccc(Cl)cc1 |  | inconclusive: 18.5 µM [inhibitor, single point]
4 | CN1CCN(c2ccc(NC(=O)c3ccc(-c4ccccc4F)o3)cc2)CC1 |  | inconclusive: 18.5 µM [inhibitor, single point]
5 | C/C(=N\NC(=O)c1c(Br)cnn1C)c1ccc(NC(=O)c2ccc(F)cc2)cc1 | inactive: 94.1% | 
6 | CC1CCCN(Cc2nc3c(c(=O)n(C)c(=O)n3C)n2CC(=O)c2ccccc2)C1 (stereo not drawn) |  | inconclusive: 18.5 µM [inhibitor, single point]
7 | O=C1C=CC2C(c3ccc4c(c3)OCO4)CC1N2Cc1ccccc1 (stereo not drawn) |  | inconclusive: 11.7 µM [inhibitor, single point]
8 | O=C(CN1CCCC1)Nc1ccc(OCc2ccccc2)cc1 | inactive: 5.78% | 
9 | O=C(c1ccc(C(F)(F)F)cc1)N1CCN(c2ccc(N3CCOCC3)nn2)CC1 |  | inconclusive: 1.65 µM [inhibitor, partial curve]
10 | CCOC(=O)C(C(=O)OCC)C1CCS(=O)(=O)C1 (stereo not drawn) |  | inconclusive: 10.4 µM [inhibitor, single point]
11 | COc1ccc(C(=O)c2ccccc2O)c(O)c1 |  | inconclusive: 8.09 µM [inhibitor, single point]
12 | C[C@H](NC(=O)N1CCn2c1nc1ccccc12)C(=O)N1CCCCC1 | inactive: 22.6% | 
13 | Cc1c(NS(=O)(=O)c2cccs2)c(=O)n(-c2ccccc2)n1C |  | inconclusive: 10.4 µM [inhibitor, single point]
14 | O=C(CN1CCOc2ccccc21)N1CCCC1 |  | inconclusive: 20.8 µM [inhibitor, single point]
15 | O=C(COc1ccccc1F)NCC(c1ccco1)N1CCCC1 (stereo not drawn) |  | inconclusive: 11.7 µM [inhibitor, single point]
16 | CC(C)NC(=S)N/N=C/c1ccc(N2CCOCC2)cc1 | inactive: 55.4% | 
17 | COc1ccc(NC(=O)c2cnn3c(C(F)(F)F)cc(-c4ccco4)nc23)cc1OC |  | inconclusive: 8.28 µM [inhibitor, partial curve, poor fit]
18 | CCc1cc(=O)oc2c3c(cc(OCC(=O)NCc4ccco4)c12)OC(C)(C)CC3 |  | inconclusive: 4.65 µM [inhibitor, partial curve, poor fit]
19 | CN1CCc2c(sc(N)c2C(=O)c2ccc(Cl)cc2)C1 |  | active: 4.65 µM
20 | CSc1ccccc1C(=O)Nc1ccc2c(c1)CCC2 | inactive: 92.1% | 
21 | O=C(N/N=C/c1ccco1)c1cc(-c2ccccc2)nc2ccccc12 |  | inconclusive: 16.5 µM [inhibitor, single point]
22 | CCN(Cc1ccccc1)C(=O)Cn1c(=O)n(CC(=O)N2CCCCC2)c(=O)c2sccc21 |  | inconclusive: 18.5 µM [inhibitor, single point]
23 | Cc1ccc2nc(Cl)c(C3CC(c4ccco4)=NN3S(C)(=O)=O)cc2c1 (stereo not drawn) |  | inconclusive: 1.47 µM [inhibitor, full curve]

Row | Compound | activity change, negative = inhibition | Potency
24 | COc1ccc(C(CNC(=O)c2cccnc2SC)N2CCOCC2)cc1 (stereo not drawn) |  | inconclusive: 0.329 µM [inhibitor, full curve, poor fit]
25 | O=C(Nc1ccc2c(c1)CCC2)Nc1ccccc1Cl |  | inconclusive: 10.4 µM [inhibitor, single point]
26 | CCOC(=O)C1CCCN(C(=O)c2ccc(CS(=O)(=O)c3ccc(C)cc3)o2)C1 (stereo not drawn) |  | inconclusive: 10.4 µM [inhibitor, single point]
27 | O=C(/C=C/c1ccccc1)N1CCCN(C(=O)/C=C/c2ccccc2)CC1 |  | inconclusive: 2.08 µM [inhibitor, partial curve, poor fit]
28 | CC(C)Oc1ccc(S(=O)(=O)N2CCOCC2)cc1NC(=O)C1CCCCC1 |  | inconclusive: 9.28 µM [inhibitor, partial curve, poor fit]
29 | COc1ccc(C(=O)NCC(c2cccnc2)N2CCN(c3ccccc3)CC2)cc1OC (stereo not drawn) |  | inconclusive: 11.7 µM [inhibitor, partial curve, poor fit]
30 | Cc1ccc(CNC(=O)C(C)OC(=O)c2ccco2)cc1 (stereo not drawn) |  | inconclusive: 2.08 µM [inhibitor, partial curve, poor fit]
31 | C=CCn1c(Sc2nnc(C)s2)nc2c1c(=O)[nH]c(=O)n2C |  | inconclusive: 10.4 µM [inhibitor, partial curve, poor fit]
32 | COC(=O)[C@H](CC(C)C)NC(=O)NC1CCCc2ccccc21 (stereo partly drawn) |  | inconclusive: 0.0738 µM [inhibitor, full curve, poor fit]
33 | CC(C)(C)[C@H]1C=C(C(=O)NC2CC2)O[C@@H](OCc2ccc(CO)cc2)C1 |  | inconclusive: 11.7 µM [inhibitor, partial curve]
34 | O=C1NC(NS(=O)(=O)c2ccccc2)(C(F)(F)F)C(=O)N1Cc1ccccc1 (stereo not drawn) |  | inconclusive: 11.7 µM [inhibitor, single point]
35 | CCC(C(=O)OCC(=O)Nc1ccc(SC(F)F)cc1)c1ccccc1 (stereo not drawn) | inactive: 0% | 
36 | COc1cc(OC)cc(C(=O)NCCCNC(=O)c2ccccn2)c1 |  | active: 11.7 µM
37 | CCOC(=O)c1cc2c(ccn2C)n1CC(=O)Nc1ccc(F)cc1 |  | inconclusive: 18.5 µM [inhibitor, single point]
38 | S=c1[nH]nc(-c2ccc3c(c2)OCO3)n1-c1ccccc1 |  | inconclusive: 4.15 µM [inhibitor, single point]
39 | COC1CCCN(Cc2nc(Cc3ccccc3F)no2)C1 (stereo not drawn) | inactive: -7.53% | 
40 | Cc1cc(NC(=O)c2ccccc2)n(-c2ccccc2)n1 |  | active: 1.85 µM
41 | N[C@@H](Cc1ccccc1)C(=O)N1CCC(C(=O)NCC(=O)Nc2ccc(F)cc2)CC1 |  | inconclusive: 18.5 µM [inhibitor, single point]
42 | CCOC(=O)c1cccc(S(=O)(=O)N(CCO)Cc2cc3cc(OC)ccc3[nH]c2=O)c1 | inactive: 141% | 
43 | O=C(/C=C/c1ccc(F)cc1)Nc1cccc(S(=O)(=O)Nc2cccc(C(F)(F)F)c2)c1 |  | inconclusive: 18.5 µM [inhibitor, single point]
44 | C/C=C/C1=CC(=O)C[C@H](c2ccc(OC)c(OC)c2)C1 |  | inconclusive: 18.5 µM [inhibitor, single point]
45 | CCOC(=O)Cn1nc(C)c(NC(=O)c2ccc(Br)o2)c1C |  | inconclusive: 11.7 µM [inhibitor, single point]
46 | CCCCn1c(SCC(=O)NC2CCS(=O)(=O)C2)nc2cc(S(N)(=O)=O)ccc21 (stereo not drawn) |  | inconclusive: 16.5 µM [inhibitor, partial curve, poor fit]

In the list so far, five contain an aryl thioether with sulfur outside any ring:
Row | Compound | activity change, negative = inhibition | Potency
20 | CSc1ccccc1C(=O)Nc1ccc2c(c1)CCC2 | inactive: 92.1% | 
24 | COc1ccc(C(CNC(=O)c2cccnc2SC)N2CCOCC2)cc1 (stereo not drawn) |  | inconclusive: 0.329 µM [inhibitor, full curve, poor fit]
31 | C=CCn1c(Sc2nnc(C)s2)nc2c1c(=O)[nH]c(=O)n2C |  | inconclusive: 10.4 µM [inhibitor, partial curve, poor fit]
35 | CCC(C(=O)OCC(=O)Nc1ccc(SC(F)F)cc1)c1ccccc1 (stereo not drawn) | inactive: 0% | 
46 | CCCCn1c(SCC(=O)NC2CCS(=O)(=O)C2)nc2cc(S(N)(=O)=O)ccc21 (stereo not drawn) |  | inconclusive: 16.5 µM [inhibitor, partial curve, poor fit]

Next part.

Row | Compound | activity change, negative = inhibition | Potency
47 | CCN(Cc1ccc2c(c1)OCCO2)C(=O)CN1C(=O)NC2(CCc3ccccc32)C1=O (stereo not drawn) |  | inconclusive: 11.7 µM [inhibitor, single point]
48 | CC(=O)NC1C(OC(=O)/C=C/c2ccccc2)OC(COC(C)=O)C(OC(C)=O)C1OC(C)=O (stereo not drawn) |  | inconclusive: 18.5 µM [inhibitor, single point]
49 | CC(C)CN(C(=O)c1ccc(C(F)(F)F)cc1)c1c(N)n(CC(C)C)c(=O)[nH]c1=O | inactive: 47% | 
50 | CC(C)CCN(C(=S)NC(=O)C1CCCCC1)c1c(N)n(Cc2ccccc2)c(=O)[nH]c1=O |  | inconclusive: 20.8 µM [inhibitor, partial curve, poor fit]
51 | COc1ccc(C(=O)C2CCCN(Cc3c(F)ccc(F)c3F)C2)c(OC)c1 (stereo not drawn) | inactive: -22.2% | 
52 | O=C(COC(=O)c1ccccn1)Nc1ccc2c(c1)OCO2 |  | inconclusive: 18.5 µM [inhibitor, single point]
53 | CC1(C)Cc2nc3nc(SCC(=O)NCc4ccccc4)n(-c4ccccc4)c(=O)c3cc2CO1 |  | inconclusive: 0.0828 µM [inhibitor, full curve, poor fit]
54 | CCOC(=O)Cn1nc(NC(=O)COc2ccc(F)cc2)cc1C | inactive: 16.8% | 
55 | CCc1ccc(NC(=O)COC(=O)CCc2nc3cc(S(=O)(=O)N(CC)CC)ccc3n2C)cc1 | inactive: 0% | 
56 | COCCNC(=O)C1CCCN(c2ncccn2)C1 (stereo not drawn) |  | inconclusive: 6.57 µM [inhibitor, partial curve]
57 | CCOC(=O)CN(C(=O)CSc1nnc2c(n1)[nH]c1ccccc12)c1ccccc1 |  | inconclusive: 2.33 µM [inhibitor, partial curve, poor fit]
58 | Cn1ncc(-c2ccno2)c1C(=O)O |  | inconclusive: 0.329 µM [inhibitor, partial curve, poor fit]
59 | CC12CN3CCN(CC(C3)/C1=N/NC(=O)Nc1ccccc1)C2 |  | inconclusive: 5.22 µM [inhibitor, single point]
60 | O=C(c1cc(-c2ccc(Cl)c(Cl)c2)on1)N1CCCC1 | inactive: -16.8% | 
61 | O=[N+]([O-])/C=C/c1cn(Cc2ccccc2)c2ccccc12 | inactive: 0% | 
62 | Cc1ccc(C[n+]2cccc(-c3ccccc3)c2)c(C)c1 |  | active: 0.329 µM
63 | Cc1cccc(NC(=O)CSc2n[nH]c(-c3ccncc3)n2)c1 |  | inconclusive: 14.7 µM [inhibitor, single point]
64 | COc1ccc(S(=O)(=O)NCCCN2CCCC2=O)c(OC)c1 | inactive: -1.67% | 
65 | N#Cc1c(NC(=O)c2ccc(Cn3cc(Br)cn3)o2)sc2c1CCCCCC2 | inactive: -58.2% | 
66 | O=C1c2ccccc2C(=O)N1CCN1CCCCC1 |  | inconclusive: 1.65 µM [inhibitor, partial curve, poor fit]
67 | CNC(=O)c1c(NC(=O)c2ccc(S(=O)(=O)N3CCCCC3)cc2)sc2c1CCN(C(C)C)C2 |  | active: 8.28 µM
68 | Cc1ccc(C(=O)/C=C/c2ccco2)c(O)c1 | inactive: 7.11% | 
